Assay results as given in US12611442B2, “mRNA encoding engineered CFTR” (Translate Bio, Inc., priority 2019, dated 2026).
Some entries share one result that the patent states for a list of compounds.

System: FRT cells
Assay: Ussing chamber assay: short-circuit current (chloride ion transport) of cells transfected with WT or engineered CFTR mRNA; sequential forskolin, VX-770, CFTRinh-172
Format: cell-based
Settings: FIG. 14C
Experimental: Chloride ion transport was measured by an Ussing chamber. This assay provides an indication of chloride flux based on the principle that the epithelium pumps ions from one side to another and ions leak back through tight junctions situated between epithelial cells. The voltage difference between two sides of the epithelium is measured using two voltage electrodes placed near the tissue/epithelium. The voltage is cancelled out by injecting current, using two other electrodes placed away from the epithelium. The short circuit current is measured as net chloride ion transport.
Traces show short-circuit current measurements during sequential additions of forskolin, an activator of CFTR-mediated chloride secretion, and VX-770 (ivacaftor), a potentiator compound that directly increases phosphorylation-dependent CFTR channel opening on amphotericin B-permeabilized membranes. CFTR proteins A-D responded to forskolin activation resulting in increased chloride ion conductance. Forskolin activation was not observed for CFTR Protein E, the ATP hydrolysis deficient E1371Q mutant. Further addition of VX-770 increased conductance in CFTR Proteins B-D.
In this example, activation of various engineered CFTR protein mutants (proteins B-E, discussed above) were compared with the activation of wild type CFTR (protein A) using the Ussing assay as described in Example 3. […]

B1: CFTR Protein E: E1371Q, ATP hydrolysis deficient (SEQ ID NO: 44, 48) (nucleic acid)
DNA: GTGCAGCCCCTGCTGCTCGGCAGAATCATCGCCTCATACGATCCAGACAACAAGGAAGAAAGAAGCATCGCCATCTACCTGGGCATTGGCCTCTGCCTCCTGTTTATTGTGCGGACTCTGCTGCTGCACCCAGCAATTTTCGGGTTGCATCATATTGGCATGCAGATGCGCATTGCTATGTTTTCCCTCATCTACAAAAAGACACTGAAACTCAGCTCCCGGGTGCTGGACAAGATCTCCATCGGCCAACTGGTGTCTCTCCTGAGCAATAACTTGAATAAGTTCGACGAAGGGCTGGCCCTGGCACACTTCGTGTGGATTGCCCCCCTGCAGGTGGCCCTGCTGATGGGACTGATTTGGGAACTGCTGCAGGCTAGCGCTTTCTGCGGCCTGGGGTTCCTGATCGTGCTGGCACTGTTTCAGGCAGGCCTGGGCCGTATGATGATGAAGTACAGAGACCAGAGGGCCGGGAAGATCTCCGAACGGCTCGTTATTACCTCTGAGATGATCGAGAACATTCAGTCTGTGAAAGCCTACTGCTGGGAGGAGGCTATGGAGAAGATGATCGAGAATCTGAGACAGACCGAGCTGAAGCTGACCAGAAAGGCCGCCTACGTGAGGTACTTCAACAGCAGTGCCTTCTTCTTCTCTGGCTTCTTCGTTGTGTTTCTGAGCGTGCTGCCATACGCTCTCATCAAAGGCATCATCCTGCGGAAGATCTTCACCACCATCAGCTTTTGCATCGTGCTTAGAATGGCCGTGACCCGGCAGTTCCCATGGGCCGTGCAAACTTGGTATGATTCCCTGGGCGCCATCAACAAAATCCAGGATTTCCTGCAGAAGCAGGAATACAAGACACTCGAATATAATCTCACAACTACTGAGGTGGTTATGGAGAACGTGACTGCCTTCTGGGAGGAGGGGTTCGGAGAGCTTTTTGAGAAGGCAAAACAGAATAACAACAACCGCAAAACCAGCAACGGCGACGACAGCCTGTTCTTCTCCAATTTTTCTCTCCTGGGAACACCCGTCCTCAAAGACATCAACTTTAAGATCGAGAGGGGACAGCTGCTCGCAGTCGCCGGATCCACAGGCGCCGGCAAGACCTCTCTGCTGATGGTTATCATGGGCGAACTGGAGCCATCCGAGGGCAAGATTAAGCACAGTGGAAGAATCTCCTTTTGTAGCCAGTTCAGTTGGATTATGCCCGGCACTATTAAGGAGAATATCATTTTTGGGGTGAGCTATGATGAGTATCGGTATCGGAGCGTTATCAAAGCCTGTCAGCTGGAGGAGGATATCAGCAAATTCGCAGAGAAGGATAATATCGTGCTGGGGGAGGGGGGAATCACCCTGAGCGGAGGCCAGAGAGCCAGAATCTCACTGGCCCGGGCCGTCTACAAGGACGCCGACCTTTACCTTCTGGACAGTCCCTTTGGATATCTGGATGTGCTGACTGAAAAGGAGATCTTCGAGTCTTGTGTGTGCAAG
  increase in activity with additional K14R substitution in the named protein: greater than 25%
